From patent publication US20030235857A1 (WHITEHEAD INSTITUTE FOR BIOMEDICAL RESEARCH A DELAWARE, published 2003)
No constants are given. Whether binding was seen depends on the method and setting. Some entries that bind do so weakly or less than the wild type. Tags and fused reporters may be left off the sequences shown.

By UniProt entry, the sequences of proteins in these tests, tags left out. Where a name states a change or a piece, a line headed by the entry shows the natural chain unless it says otherwise.
UniProt P04386: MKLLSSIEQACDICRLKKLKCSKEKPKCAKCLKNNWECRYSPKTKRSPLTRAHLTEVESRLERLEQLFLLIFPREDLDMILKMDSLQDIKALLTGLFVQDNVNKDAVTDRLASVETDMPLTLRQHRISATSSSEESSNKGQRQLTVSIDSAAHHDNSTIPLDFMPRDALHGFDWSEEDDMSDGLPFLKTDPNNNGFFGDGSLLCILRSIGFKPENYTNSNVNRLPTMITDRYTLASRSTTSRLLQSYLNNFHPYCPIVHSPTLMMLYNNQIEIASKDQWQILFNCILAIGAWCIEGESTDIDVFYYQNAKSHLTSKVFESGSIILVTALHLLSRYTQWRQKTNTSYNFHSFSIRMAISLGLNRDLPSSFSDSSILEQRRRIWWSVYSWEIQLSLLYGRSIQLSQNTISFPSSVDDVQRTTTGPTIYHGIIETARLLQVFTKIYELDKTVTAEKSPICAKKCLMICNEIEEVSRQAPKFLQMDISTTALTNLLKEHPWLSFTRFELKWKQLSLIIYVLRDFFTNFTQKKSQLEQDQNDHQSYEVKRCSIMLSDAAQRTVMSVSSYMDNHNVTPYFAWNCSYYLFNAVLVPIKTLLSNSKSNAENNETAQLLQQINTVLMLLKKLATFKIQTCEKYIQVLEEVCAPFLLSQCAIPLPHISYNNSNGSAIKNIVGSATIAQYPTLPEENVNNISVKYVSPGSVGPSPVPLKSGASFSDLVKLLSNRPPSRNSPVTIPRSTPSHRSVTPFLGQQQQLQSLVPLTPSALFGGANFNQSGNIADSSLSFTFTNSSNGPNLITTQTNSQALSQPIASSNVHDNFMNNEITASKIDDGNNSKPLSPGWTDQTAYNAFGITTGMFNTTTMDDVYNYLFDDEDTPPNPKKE
UniProt P06245: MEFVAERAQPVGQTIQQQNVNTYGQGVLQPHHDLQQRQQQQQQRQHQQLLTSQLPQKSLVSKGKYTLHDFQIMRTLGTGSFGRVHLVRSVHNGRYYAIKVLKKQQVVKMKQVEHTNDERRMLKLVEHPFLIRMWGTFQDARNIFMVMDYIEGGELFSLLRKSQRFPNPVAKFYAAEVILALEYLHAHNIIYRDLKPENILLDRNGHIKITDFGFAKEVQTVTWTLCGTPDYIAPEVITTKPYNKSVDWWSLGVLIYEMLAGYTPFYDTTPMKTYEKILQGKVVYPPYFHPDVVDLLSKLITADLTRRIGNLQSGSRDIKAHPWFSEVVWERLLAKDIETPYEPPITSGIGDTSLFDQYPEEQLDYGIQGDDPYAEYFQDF
UniProt P06244: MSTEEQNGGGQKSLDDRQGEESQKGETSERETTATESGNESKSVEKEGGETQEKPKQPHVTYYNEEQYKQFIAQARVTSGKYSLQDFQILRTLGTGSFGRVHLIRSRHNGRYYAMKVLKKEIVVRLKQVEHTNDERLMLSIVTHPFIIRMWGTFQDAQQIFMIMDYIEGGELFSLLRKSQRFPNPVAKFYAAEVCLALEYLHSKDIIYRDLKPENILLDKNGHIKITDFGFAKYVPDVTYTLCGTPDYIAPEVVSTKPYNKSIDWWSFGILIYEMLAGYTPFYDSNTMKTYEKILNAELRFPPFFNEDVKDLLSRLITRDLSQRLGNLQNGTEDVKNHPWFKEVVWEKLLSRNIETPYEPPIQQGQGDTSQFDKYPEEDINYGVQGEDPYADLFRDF
UniProt P05986: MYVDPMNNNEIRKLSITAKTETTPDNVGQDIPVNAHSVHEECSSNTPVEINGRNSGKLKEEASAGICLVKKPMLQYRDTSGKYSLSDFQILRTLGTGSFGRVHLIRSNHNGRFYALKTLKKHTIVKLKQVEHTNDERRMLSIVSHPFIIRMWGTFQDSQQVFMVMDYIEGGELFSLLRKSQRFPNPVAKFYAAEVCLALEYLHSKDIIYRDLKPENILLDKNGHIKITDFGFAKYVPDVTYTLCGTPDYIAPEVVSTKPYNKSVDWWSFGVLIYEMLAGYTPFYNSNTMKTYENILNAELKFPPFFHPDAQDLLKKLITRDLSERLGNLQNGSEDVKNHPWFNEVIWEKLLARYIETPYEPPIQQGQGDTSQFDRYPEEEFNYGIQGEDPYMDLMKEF

Key:
[1] = molecular target: T1, Gal4 DNA binding domain:Tpk2 fusion (Saccharomyces cerevisiae) (UniProt P04386+P06245); assay: yeast two-hybrid, yeast growth indicates an interaction
[2] = molecular target: T1, Gal4 DNA binding domain:Tpk2 fusion (Saccharomyces cerevisiae); assay: yeast two-hybrid, GAL4-ADE2 reporter, growth without adenine
[3] = molecular target: Tpk1 fused to the Gal4 DNA binding domain (Saccharomyces cerevisiae) (UniProt P04386+P06244); assay: as above
[4] = molecular target: Tpk3 fused to the Gal4 DNA binding domain (Saccharomyces cerevisiae) (UniProt P04386+P05986); assay: as above

Row | binding [2] | binding [3] | binding [4] | Binder | binding [1]
1 | binds | – | – | Sfl1 fused to the Gal4 activation domain (protein, Saccharomyces cerevisiae, UniProt P20134 1-766, looked up, not shown: large carriers) MSEEETVSAPAPASTPAPAGTDVGSGGAAAGIANAGAEGGDGAEDVKKHGSKMLVGPRPPQNAIFIHKLYQILEDESLHDLIWWTPSGLSFMIKPVERFSKALATYFKHTNITSFVRQLNIYGFHKVSHDHSSNDANSGDDANTNDDSNTHDDNSGNKNSSGDENTGGGVQEKEKSNPTKIWEFKHSSGIFKKGDIEGLKHIKRRASSRNNSSINSRKNSSNQNYDIDSGARVRPSSIQDPSTSSNSFGNFVPQIPGANNSIPEYFNNSHVTYENANHAPLESNNPEMQEQNRPPNFQDETLKHLKEINFDMVKIIESMQHFISLQHSFCSQSFTFKNVSKKKSENIVKDHQKQLQAFESDMLTFKQHVMSRAHRTIDSLCAVNAAATAASVAPAPAPTSTSAYAPKSQYEMMVPPGNQYVPQKSSSTTNIPSRFNTASVPPSQLFVQYQPQSQQHVTYAKQPAHVPNFINQPIPIQQLPPQYADTFSTPQMMHNPFASKNNNKPGNTKRTNSVLMDPLTPAASVGVQGPLNYPIMNINPSVRDYNKPVPQNMAPSPIYPINEPTTRLYSQPKMRSLGSTSSLPNDRRNSPLKLTPRSSLNEDSLYPKPRNSLKSSISGTSLSSSFTLVANNPAPIRYSQQGLLRSLNKAANCAPDSVTPLDSSVLTGPPPKNMDNLPAVSSNLINSPMNVEHSSSLSQAEPAPQIELPQPSLPTTSTTKNTGEADNSKRKGSGVYSLLNQEDSSTSSADPKTEDKAAPALKKVKM | binds
2 | binds | binds | binds | Bcy1, the negative regulatory subunit of PKA, fused to the Gal4 activation domain (protein, Saccharomyces cerevisiae, UniProt P07278 1-416, looked up, not shown: large carriers) MVSSLPKESQAELQLFQNEINAANPSDFLQFSANYFNKRLEQQRAFLKAREPEFKAKNIVLFPEPEESFSRPQSAQSQSRSRSSVMFKSPFVNEDPHSNVFKSGFNLDPHEQDTHQQAQEEQQHTREKTSTPPLPMHFNAQRRTSVSGETLQPNNFDDWTPDHYKEKSEQQLQRLEKSIRNNFLFNKLDSDSKRLVINCLEEKSVPKGATIIKQGDQGDYFYVVEKGTVDFYVNDNKVNSSGPGSSFGELALMYNSPRAATVVATSDCLLWALDRLTFRKILLGSSFKKRLMYDDLLKSMPVLKSLTTYDRAKLADALDTKIYQPGETIIREGDQGENFYLIEYGAVDVSKKGQGVINKLKDHDYFGEVALLNDLPRQATVTATKRTKVATLGKSGFQRLLGPAVDVLKLNDPTRH | –

Row | Binder | binding [2] | binding [3] | binding [4] | binding [1]
3 | Mga1 fused to the Gal4 activation domain (other, Saccharomyces cerevisiae, UniProt P53050 1-456, looked up, not shown: large carriers, also called YGR249w) MQPKTFVHQLHAILLEPEVNKWIYWSPTDNTVFFLKPYDPNFSTHVLKRYFKHGNVNSFVRQLHMYGFHKLSHPSPDQSSANNGNVKELVEWKFTHPSGFFFKEANAGILNKIQRKSTGVGKDGKRKNILSPISVSYVDASRLNVLSQQSGPVSAREPSNMFMGSPVHYSTSQSPPHISIPQQQQSSGPYLISSLPPQQPTVNMMRRQSISARMMNSYDYPNQFSTQDSIVQPQQPQQVLSPQALSGPPMKKSGTLSSTDDLKTTSLPIVNYPMPYHPGAFAQQQQQQQQPLPTVPPYSSYSTPFPSMMNSLSNSASNSPALGVCNNNVTLPKKSNISERQALDNHIQTLKNSLSTITDLIEKHINSASQDENKTLTNDAMNKDLRTSLSLLQNSKEEIIQLESKWMSMQSVKTTALPLQETTNTSSTLTSLTSSIIPKSIPIITKGEVATKPASY | binds | – | – | binds
